Assay results published in article PMC7819943, “Rice protein-binding microarrays: a tool to detect cis-acting elements near promoter regions in rice”.
The list shows a part of the results.

These sequences were tested against T1, OsSMF1 (Oryza sativa, UniProt Q6ZLB0 1-436) (assay: protein-binding microarray (RPBM); PBS, 2% BSA, 51.3 ng/ul salmon testes DNA, 50 uM zinc acetate, 200 nM TF, 25 C, 1 h; high values mean tight binding). Details: protein: recombinant; tags: N-terminal polyhistidine and DsRed monomer fusion (pET32a); chain copies: 2; label: CyDye5-dUTP incorporated in the synthesized complementary strand; 3' TTTTT single-stranded linker to array surface; dsDNA, one strand shown.
T1 sequence: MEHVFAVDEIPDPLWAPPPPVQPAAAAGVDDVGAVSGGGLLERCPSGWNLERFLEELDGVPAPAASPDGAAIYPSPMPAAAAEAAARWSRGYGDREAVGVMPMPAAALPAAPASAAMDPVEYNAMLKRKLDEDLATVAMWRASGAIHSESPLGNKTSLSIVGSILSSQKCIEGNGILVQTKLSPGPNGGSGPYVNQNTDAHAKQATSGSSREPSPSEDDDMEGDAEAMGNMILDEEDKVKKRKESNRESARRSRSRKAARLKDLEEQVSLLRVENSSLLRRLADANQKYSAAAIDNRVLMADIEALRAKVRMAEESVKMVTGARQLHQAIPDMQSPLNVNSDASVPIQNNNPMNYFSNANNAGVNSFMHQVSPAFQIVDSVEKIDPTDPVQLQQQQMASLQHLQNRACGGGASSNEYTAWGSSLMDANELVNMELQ
How it was run: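 Binding signal is reported as fluorescence intensity per feature (arbitrary units) from an Axon 4000B scanner. Incubation used 200 nM of each Ni–NTA-purified, N-terminally polyhistidine- and DsRed-fused transcription factor from E. coli BL21-CodonPlus on a double-stranded custom Agilent array for 1 h at 25 °C, with 50 µM zinc acetate in the buffer, followed by washing.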
“ATCTCAATCGGGCTTAAATTACGGCCCGTCACTGATAGGTCGGAGTCACCTAGTGCAG” was tested, and the binding signal was 5540 fluorescence intensity (a.u.). In the case of “ACAGTTGCTGACTAGGTTGACCTTGACTCAACCACCCTACCGGAGTCACCTAGTGCAG”, the binding signal is reported as 8980 fluorescence intensity (a.u.). In the case of “GTCTACGAATATTATGTACACGTAAATGAACTGTCAATCGCGGAGTCACCTAGTGCAG”, the binding signal is reported as 5540 fluorescence intensity (a.u.). “CATTCAACCACACACATCACACATCCGTTGGCTTCTTCCACGGAGTCACCTAGTGCAG” was tested, and the binding signal was 4860 fluorescence intensity (a.u.). With “ATCTCTCATCCTGTCACAAACTATTTAGAGTGCAAACTCGCGGAGTCACCTAGTGCAG” the binding signal was 17700 fluorescence intensity (a.u.). In the case of “TTTTCCACAAAACGTACGCCTACGTGTCCTCCTATCCCCTCGGAGTCACCTAGTGCAG”, the binding signal is reported as 18200 fluorescence intensity (a.u.). In the case of “TGGCGGTTTGGAAGGCGGTTTTGGCTGACGTGGCGTCTACCGGAGTCACCTAGTGCAG”, the binding signal is reported as 43800 fluorescence intensity (a.u.). With “AAAATAATTAAAATAGTACGAGTAGATTCACACAAGATCTCGGAGTCACCTAGTGCAG” the binding signal was 39900 fluorescence intensity (a.u.). In the case of “TCGAACAAACCCTAACAACAACAGACAAGAGAGAGGCATTCGGAGTCACCTAGTGCAG”, the binding signal is reported as 3920 fluorescence intensity (a.u.). In the case of “ATGCTTGCTGTTACCCCTGAATTGAATTCTGAAACCGAATCGGAGTCACCTAGTGCAG”, the binding signal is reported as 26700 fluorescence intensity (a.u.). “CGGCCGCGTCAGGGAGGACGCCGCGCGGCACTACTTCCGGCGGAGTCACCTAGTGCAG” was tested, and the binding signal was 3870 fluorescence intensity (a.u.). In the case of “CCCTTCCTCCGCCTATTGCTGCCACGCCCCTCCTTCCTCCCGGAGTCACCTAGTGCAG”, the binding signal is reported as 5240 fluorescence intensity (a.u.). “AGACGCTCGCGTTGCGTGGTAGACGGACTTCACGATGAATCGGAGTCACCTAGTGCAG” was tested, and the binding signal was 3680 fluorescence intensity (a.u.). For “GTGCTGTTTGTGATGTTTGTCTGTATGTGCTCCGTCTGTTCGGAGTCACCTAGTGCAG”, the binding signal was 3340 fluorescence intensity (a.u.). In the case of “ATCAATCCTGCACTACAAGCAGAGTAAAATGGTGATTTCTCGGAGTCACCTAGTGCAG”, the binding signal is reported as 4710 fluorescence intensity (a.u.). “TGAACTAACGCCATCAGATGAGTCATCCGTCAACCAGTATCGGAGTCACCTAGTGCAG” was tested, and the binding signal was 11900 fluorescence intensity (a.u.). With “GCTCCAACTCGCAAACTGTGGCACTGGGCTCCATGCCAGACGGAGTCACCTAGTGCAG” the binding signal was 3560 fluorescence intensity (a.u.). With “ACGCCGGAGTCCACGGCGTGGCACCGGACCACGCCCACGACGGAGTCACCTAGTGCAG” the binding signal was 3590 fluorescence intensity (a.u.). “TGAGGGACCTTGCGTGTACTTTTCCCTTTAATTAGTGGATCGGAGTCACCTAGTGCAG” was tested, and the binding signal was 5190 fluorescence intensity (a.u.). With “ATTAACATGCATCCGCCTCACCGAAGGCATTCCACGCTTCCGGAGTCACCTAGTGCAG” the binding signal was 3380 fluorescence intensity (a.u.). With “GCAGCGCCCGAATGAAGGGCCACGTCAGCTCCTTTGTCCGCGGAGTCACCTAGTGCAG” the binding signal was 20900 fluorescence intensity (a.u.). In the case of “TTATCCAGTTCTCGTCACTGGCACGTGGGCCCCACCGTGGCGGAGTCACCTAGTGCAG”, the binding signal is reported as 8190 fluorescence intensity (a.u.). In the case of “GCACCTGCGGCATGGCGTCACCTAACCCACTCTCTGTCAGCGGAGTCACCTAGTGCAG”, the binding signal is reported as 4140 fluorescence intensity (a.u.). In the case of “ATCACTTGGTGTTGTGCATTCCCGTTCTTTCTGTATGATGCGGAGTCACCTAGTGCAG”, the binding signal is reported as 3670 fluorescence intensity (a.u.). In the case of “TATTCACATTGGTGTGTGTGTGTGTGTTGCACATTCACATCGGAGTCACCTAGTGCAG”, the binding signal is reported as 3970 fluorescence intensity (a.u.). With “TCAAGTGTCAACGTCTGATTTGGCCTCCGTAGATTGCAGACGGAGTCACCTAGTGCAG” the binding signal was 3370 fluorescence intensity (a.u.). With “TTAGCCCTTCCTCTCCTGCTTCCGCCCTTCCATGGCAATGCGGAGTCACCTAGTGCAG” the binding signal was 46700 fluorescence intensity (a.u.). “TGGGCGTACGGCTGTCACGTGTTTCCGGCGGACGAGTCTTCGGAGTCACCTAGTGCAG” was tested, and the binding signal was 3440 fluorescence intensity (a.u.). “CTCATCTCCACAAGGACACCCCAGCCCACCACTCATCGGCCGGAGTCACCTAGTGCAG” was tested, and the binding signal was 3350 fluorescence intensity (a.u.). In the case of “TCTGTGGTGGATTTGGTCAGGTGGAGAATGAGTTTGGGCCCGGAGTCACCTAGTGCAG”, the binding signal is reported as 5650 fluorescence intensity (a.u.). “TAGGCAAATTACATGGCATGTGCCACGTCGTTGTTGCACCCGGAGTCACCTAGTGCAG” was tested, and the binding signal was 16500 fluorescence intensity (a.u.). In the case of “TCGCCCGCGCCCACTGACACGTGGGGCCCGGCACGTGGGCCGGAGTCACCTAGTGCAG”, the binding signal is reported as 11500 fluorescence intensity (a.u.). “TGGGCAAGCAGGTGAAGTGAGGGACCATGGTGAGAGGGTGCGGAGTCACCTAGTGCAG” was tested, and the binding signal was 31700 fluorescence intensity (a.u.). In the case of “AGGTATGTGTCAACTTGCTCATATAATAGAGGGACACGTTCGGAGTCACCTAGTGCAG”, the binding signal is reported as 3230 fluorescence intensity (a.u.). “GCGGCGCTCGACGTCGACGGCGGAGAGCTCCTCGATCGCCCGGAGTCACCTAGTGCAG” was tested, and the binding signal was 3150 fluorescence intensity (a.u.). For “CCTAGAACTTCAAGCCAAGCACATCATCAGTTGCACACTCCGGAGTCACCTAGTGCAG”, the binding signal was 3990 fluorescence intensity (a.u.). “CTGCACCACCACCACCGCCACCGCGGCCTCTCCTCCTCCCCGGAGTCACCTAGTGCAG” was tested, and the binding signal was 3970 fluorescence intensity (a.u.). With “GGATGTGTATGTATTTATAGGGGTAAGTGAGAAGACTCATCGGAGTCACCTAGTGCAG” the binding signal was 5230 fluorescence intensity (a.u.). In the case of “AAAGCAATGCAGCTATAGCTAAAGGACTTAAAGTAGCCAACGGAGTCACCTAGTGCAG”, the binding signal is reported as 3350 fluorescence intensity (a.u.). “TGCCCGCATGCCACCGTCAACACCGCTGTGGCCCTCGCCCCGGAGTCACCTAGTGCAG” was tested, and the binding signal was 3270 fluorescence intensity (a.u.). In the case of “GTCATTGTCATCCTATAGTCTTTTAACAACTCGATCAGAACGGAGTCACCTAGTGCAG”, the binding signal is reported as 18000 fluorescence intensity (a.u.). In the case of “CGGAGCATATCGTCCTTTTCGTTGTCGGCGGCGGCGTAGGCGGAGTCACCTAGTGCAG”, the binding signal is reported as 3450 fluorescence intensity (a.u.). For “TTCGATACATAATCTGTTGCGATAAAACATACTCCCTCCGCGGAGTCACCTAGTGCAG”, the binding signal was 24700 fluorescence intensity (a.u.). “GCCGGAGCTGCACGACTTCGGACCCGCCGCCGCCGACTCCCGGAGTCACCTAGTGCAG” was tested, and the binding signal was 3850 fluorescence intensity (a.u.). With “GGAAGGGAGAGAGATGACATGGCAGACTGATATGTGGGGCCGGAGTCACCTAGTGCAG” the binding signal was 9860 fluorescence intensity (a.u.). For “GTGGCACATCCACGTGGGCCACGTTGGCGGTTGGCCCCTTCGGAGTCACCTAGTGCAG”, the binding signal was 18700 fluorescence intensity (a.u.). “GGCTACTAACTTGGGTGACTAGGCAGCAATAAGGTGACCTCGGAGTCACCTAGTGCAG” was tested, and the binding signal was 5940 fluorescence intensity (a.u.). “TAAGGAAACAAGCCCGCGATGTGTCGTGTGCAGCAATCTTCGGAGTCACCTAGTGCAG” was tested, and the binding signal was 3440 fluorescence intensity (a.u.). “CATTAATATTGATATGGTTCGCTGTTTGCATATATGTGAACGGAGTCACCTAGTGCAG” was tested, and the binding signal was 3410 fluorescence intensity (a.u.). “ACACGAGCCGAGAGCAAAACGTCCCCGTCCCGCCGTCCCGCGGAGTCACCTAGTGCAG” was tested, and the binding signal was 3290 fluorescence intensity (a.u.). In the case of “GCCCATATAAAGAAACGCTGCACTGGATGGCTTGTTGCTCCGGAGTCACCTAGTGCAG”, the binding signal is reported as 3560 fluorescence intensity (a.u.). In the case of “AGTGTGTACGACTGGAACGGCTGAGCACGTCGCTACGCACCGGAGTCACCTAGTGCAG”, the binding signal is reported as 3470 fluorescence intensity (a.u.). “GAATTATGATTCAATAAATCTTAGAATCCACGTGGCTCCCCGGAGTCACCTAGTGCAG” was tested, and the binding signal was 22100 fluorescence intensity (a.u.). With “TTTTCCTCCGTTCTCCGCCCACGCGCCGTCATCGCTGCCCCGGAGTCACCTAGTGCAG” the binding signal was 16000 fluorescence intensity (a.u.).
